In paper PMC12040169 (PLOS Biology, 2025):
The other results are listed elsewhere or left out.

system: T1, CTL2-GFP (C. trachomatis L2/434/Bu, GFP-expressing); design: species or system HeLa; Intracellular C. trachomatis growth in HeLa cells, bulk GFP fluorescence relative to DMSO; conditions: bulk GFP, single well; 28.5 h, 10 µM; inhibitor
T1 construct: L2/434/Bu, GFP-expressing

SMILES | % of control remaining [%]
CC(C)C[C@@H]1NC(=O)C2(C/C=C/C[C@@H]3COCC[C@@H]3NC1=O)CCN(C(=O)[C@H](CO)NC(=O)OCc1ccccc1)CC2 [CBK292191] | 171.011
Oc1cc2cccnc2nc1-c1cccc(C(F)(F)F)c1 [CBK073704] | 104.743
OC(COc1ccc(Br)cc1)CN1CCCN(c2nc3ccc(Cl)cc3s2)CC1 (stereo not shown) [CBK074643] | 16.3843
CCOc1cccc(NC(=O)/C(C#N)=C\c2cc(OC)c(O)cc2Br)c1 [CBK263189] | 100
c1cncc(C2N3CCC4(CC3)c3[nH]c5ccccc5c3CCN24)c1 (stereo not shown) [CBK284430] | 103.174
COc1ccc(C2=NN(c3ccc([N+](=O)[O-])cc3)C(=O)/C2=C/NCc2ccccn2)cc1 [CBK265276] | 125.219
C[C@@H](Nc1cncc(-c2cccs2)n1)c1ccccc1 [CBK065711] | 69.1395
CCN(CC)C(=O)c1ccc2[nH]ccc2c1 [CBK149072] | 104.96
CC(C)(CN(Cc1ccccc1)C(=O)/C=C/c1ccccc1)NC(=O)OC(C)(C)C [CBK003266] | 57.5996
COc1ccc(NC(=S)N2CCN(C/C=C/c3ccccc3)CC2)cc1OC [CBK266891] | 143.768
CCn1cncc1CN1CC2CCCC(O)(c3ccc(F)cc3)C2C1 (stereo not shown) [CBK282119] | 164.785
CCC(NC(=O)C1(Cn2ccnc2)CC1)c1ncccc1C (stereo not shown) [CBK307046] | 113.87
CN1CCCN(c2nccnc2-c2cccc(O)c2)CC1 [CBK088820] | 82.6506
Cc1ccccc1Sc1ncccc1C(F)(F)F [CBK115231] | 102.799
O=C(CCCn1cccn1)N1CCOC(c2ccc(Cl)c(Cl)c2)C1 (stereo not shown) [CBK304640] | 113.533
C=CCn1cc(CN2CCc3c(nc(C)[nH]c3=O)C2)c2ccccc21 [CBK283992] | 91.2968
Cc1ccc(-c2csc3ncn(Cc4ccccc4C)c(=O)c23)cc1C [CBK099921] | 96.4227
O=C(NCCCNC(=O)c1ccccn1)c1ccc(Cl)cc1 [CBK269193] | 178
Cc1cc(C)cc(NC(=O)CSc2ncnc3c2oc2ccccc23)c1 [CBK287394] | 162.344
CC(NC(=O)CSc1nnc(-c2ccc(Cl)cc2)n1-c1ccccc1)c1ccccc1 (stereo not shown) [CBK264993] | 118.265
Cc1nc2ccc(C(=O)NCC3CCCN(C(C)C)C3)cc2[nH]1 (stereo not shown) [CBK282475] | 145.129
Cc1cc(=O)oc2cc(NC(=S)NNC(=O)C3CCN(Cc4ccc(F)cc4Cl)CC3)ccc12 [CBK266953] | 146.084
CCOC(=O)c1c(NC(=S)NC(=O)c2cccc(Cl)c2)sc2c1CCCC2 [CBK264045] | 100
c1ccc(COc2ccccc2-c2cc(NCCc3ccccn3)ncn2)cc1 [CBK037826] | 185.94
Nc1ncc(-c2ccncc2)nc1-c1cccc2c1oc1ccccc12 [CBK063889] | 235.987
CN(C)CCCNc1nc(-c2cccc(Cl)c2)nc2ccccc12 [CBK267284C] | 137.3
COC(=O)[C@@H]1Cc2ncn(Cc3ccc(OC)cc3)c2CN1C(=O)c1ccc(C#N)cc1 [CBK288982] | 125.675

SMILES | % of control remaining [%]
O=C(/C=C/c1cccnc1)Nc1ccccc1N1CCNCC1 [CBK034136T] | 82.7221
O=C(NCCCC1CCOC1)c1[nH]nc2c1CCCCC2 (stereo not shown) [CBK283154] | 119.305
Cc1cc(-c2ccc(=O)n(CCNC(=O)c3cccs3)n2)c(C)o1 [CBK284461] | 140.249
CC(C)NC(=O)c1cc([C@H]2CC[C@H](CNC(=O)Cn3cccn3)CC2)nc2ccccc12 [CBK285859] | 96.7249
CC(NC(=O)c1cccc2ccccc12)c1ccc2ccccc2c1 (stereo not shown) [CBK267646] | 128.137
COc1cc(-c2cc(N(C)CCN(C)C)n3nccc3n2)cc(OC)c1OC [CBK037181] | 87.8455
Cc1ccc(Cl)cc1NC(=O)c1cnc2scc(C)n2c1=O [CBK287464] | 124.307
CC(C)(C)c1[nH]c2ncccc2c1CN1CCCC(CO)C1 (stereo not shown) [CBK285342] | 120.452
CN(C)CCNc1nc(-c2cncnc2)cnc1N [CBK063661] | 186.659
CN(CC(=O)O/N=C(\N)c1cccnc1)S(=O)(=O)c1ccccc1 [CBK267684] | 136.843
COc1cccc(C(NC(=O)C2COc3c(cccc3OC)C2)c2ccccc2)c1 (stereo not shown) [CBK285736] | 106.786
O=C(CSc1nc(Nc2ccccc2)nc(N2CCOCC2)n1)Nc1ccc2c(c1)OCO2 [CBK268320] | 166.367
CCN(CC(=O)Nc1c(F)cccc1F)S(=O)(=O)c1cccc(C#N)c1 [CBK306197] | 110.48
COc1ccc(C2(NCc3c(C)nc4sccn34)CC2)cc1 [CBK282835] | 118.179
O=C(CN1C(=O)S/C(=C\c2ccc(OCc3ccccc3)cc2)C1=O)c1ccccc1 [CBK264636] | 119.788
OC(CN1CCN(Cc2ccc3c(c2)OCO3)CC1)c1ccccc1 (stereo not shown) [CBK074759] | 145.855
CN1CCC(N(C)C2CCN(Cc3ccccc3)CC2)CC1 [CBK261925] | 117.637
Cc1ccc(S(=O)(=O)CCOc2nc3c(C(F)(F)F)cc(C4CC4)nc3o2)cc1 [CBK269267] | 113.827
CCOc1ccc(-c2cnc(SCC(=O)O)nc2N)cc1 [CBK269928] | 86.9209
Cc1cccc(OCCn2cncc2-c2cn(C)nc2C)c1C [CBK281458] | 68.5042
Cc1nc2ccc(C(=O)NC(c3ccccc3)c3cccnc3)cc2[nH]1 (stereo not shown) [CBK283259] | 103.121
C/C(=N\N=C1\N=C(O)C(CC(=O)NCc2ccccc2)S1)c1ccco1 (stereo not shown) [CBK263698] | 119.636
CC(C)(O)C#Cc1ccc(C(=O)N2CCN(Cc3ccccc3)CC2)cc1 [CBK263100] | 100
COc1cc(/C=N/c2ccc3oc(-c4cccc(I)c4)nc3c2)ccc1OC(=O)c1ccc(Cl)cc1Cl [CBK261239] | 104.991
CCOc1ccsc1C(=O)N1CCN(CC)CC1 [CBK200250] | 157.58
Cc1c(C(=O)Nc2cccc(-c3nc4ccccc4s3)c2)sc2nc[nH]c(=O)c12 [CBK285825] | 125.971
O=C(O)c1cc(S(=O)(=O)N2CCCCC2)c(Cl)cc1N1CCCCC1 [CBK263408] | 127.034

Grouped by structure: the compounds so far with a CF3 group.
SMILES | % of control remaining [%]
Oc1cc2cccnc2nc1-c1cccc(C(F)(F)F)c1 [CBK073704] | 104.743
Cc1ccccc1Sc1ncccc1C(F)(F)F [CBK115231] | 102.799
Cc1ccc(S(=O)(=O)CCOc2nc3c(C(F)(F)F)cc(C4CC4)nc3o2)cc1 [CBK269267] | 113.827

The listing continues.

SMILES | % of control remaining [%]
Cc1ccc(S(=O)(=O)N2C[C@H]3C[C@H](NC(=O)C(C)C)[C@H]3C2)cc1 [CBK285317] | 144.626
Cc1ccc2nsnc2c1NC(=O)COc1ccccc1[N+](=O)[O-] [CBK263779] | 126.395
CCC1CCCCN1C(=O)c1ccc(C)s1 (stereo not shown) [CBK084526] | 141.279
CN(C)CCN(C)c1nc(-c2ccc(C(C)(C)C)cc2)cn2ccnc12 [CBK066477] | 188.838
N#Cc1ccsc1NC(=O)CSc1nc[nH]n1 [CBK267221] | 119.783
COCC1CCCN1C(=O)c1cnn2c(C)c(Cc3ccc(OC)cc3)c(C)nc12 (stereo not shown) [CBK162190] | 120.929
Cc1cc(C(=O)NC2CCCc3c2cnn3-c2ccc(F)cc2)on1 (stereo not shown) [CBK282310] | 71.1096
CN1C(=O)COc2ccccc2C/C=C/C[C@@H]2[C@H]1CCCN2S(=O)(=O)c1cccnc1 [CBK292067] | 109.284
Cc1cc(C(=O)Nc2c(C)noc2C)n[nH]1 [CBK200395] | 110.535
Cc1ccc(NC(=O)OCC(F)(F)C(F)F)cc1Cl [CBK026548] | 130.989
COC(=O)c1sc2[nH]c(CN(C)Cc3ccco3)nc(=O)c2c1C [CBK306047] | 114.026
CCOc1ccc(OCC)c2c1n(C)c(SC)[n+]2C [CBK005720G] | 23.7715
CS(=O)(=O)N(Cc1ccc(Cl)cc1)c1ccc(C(=O)Nc2ccccc2C(F)(F)F)cc1 [CBK263988] | 100
Cc1cc(NC(=O)C2CCN(c3ncccc3C#N)CC2)no1 [CBK305689] | 122.2
O=C(CCCOc1ccccc1)Nc1cccc(N2CCNCC2)c1 [CBK028290T] | 119.564
Cc1nc(C)c(-c2cnc(NS(=O)(=O)c3ccc(Cl)cc3)nc2)s1 [CBK005935] | 100
CN(C)C(=O)Cn1c(=O)n(Cc2cccs2)c2ncccc21 [CBK283902] | 153.209
Cc1ccc(-c2nnc3s/c(=C\c4ccc([N+](=O)[O-])cc4)c(=O)n23)cc1 [CBK264882] | 116.454
O=c1c(Oc2ccc3ccccc3c2)c(C(F)(F)F)oc2c(CN3CCOCC3)c(O)ccc12 [CBK264487] | 132.532
CCCCCc1c(C)nc(-c2ccccn2)nc1O [CBK017441] | 76.106
COCc1nnc(NS(=O)(=O)c2ccc(Br)cc2)s1 [CBK045526] | 120.802
Cc1cccc(OCC(C)NC(=O)N2CCCC2c2cnn(C)c2)c1 (stereo not shown) [CBK304100] | 132.884
CC1(C)CC(/N=C(\c2ccccc2)c2ccc(O)cc2O)CC(C)(C)N1 [CBK262004] | 96.4073
O=C(NCCNCc1ccccc1)c1ccccc1 [CBK012505] | 99.8821
Cc1ccccc1CSCC(=O)Nc1c[nH]c(=O)[nH]c1=O [CBK269790] | 105.423
